# Data as given in PubChem BioAssay AID1259254 (NCATS, 2017)
# Purpose: 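Finding genes that stop cells copying their DNA twice in one cycle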 (primary screen)
# Cells: human HCT116 colorectal cancer cells
# Reagents: single siRNA against human genes
# Timing: 3 days
# Detection: 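Nuclei stained with Hoechst and imaged; cell-cycle phase assigned by DNA content; G2 share scaled per plate, non-targeting siRNA 0%, GMNN siRNA 100%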
# Reading the numbers: G2 robust z-score and G2 cells, % of GMNN control: higher = more G2 cells, more excess DNA replication; raw share of cells in G2: higher = larger share of cells with G2 DNA content
# Rule for the call: 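An siRNA counts as active if its G2 robust z-score lies at least 5 MADs above the screen median; here such calls match roughly 38% of GMNN control or more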
# Here is an unselected part of about 59,000 reagents tested. About 1,550 of all reagents (2.6%) were called active. 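G2 share is only a proxy for re-replication; each gene was hit by three separate siRNAs, and active genes were retested.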 The raw values are shown without normalisation. Unmarked entries are inactive. The numbers tell different reagents against one gene apart. The record does not give: the amount of reagent.
gene knocked down,reagent no.,G2 robust z-score,"G2 cells, % of GMNN control",raw share of cells in G2 (%)
TSLIG3C,1,1.96,16.8,9.45
TSLIG3C,2,0.273,4.89,4.42
TSLIG3C,3,-0.205,1.52,3.6
PLCXD3,1,0.0759,3.5,5.19
PLCXD3,2,-0.327,0.667,3.55
PLCXD3,3,-0.408,0.0965,4.23
ATF5,1,-0.312,0.77,3.78
ATF5,2,1.86,16.1,13.2
ATF5,3,-0.19,1.63,4.02
FRK,1,1.65,14.6,10.4
FRK,2,-0.573,-1.06,5.05
FRK,3,1.84,15.9,9.63
MTRES1,1,-0.692,-1.9,3.13
MTRES1,2,0.566,6.95,7.18
MTRES1,3,0.139,3.95,4.5
SRP9P1,1,-0.00631,2.92,3.65
SRP9P1,2,-0.699,-1.95,2.48
SRP9P1,3,-0.535,-0.796,2.88
PEX5L,1,-0.436,-0.0983,4.21
PEX5L,2,-0.997,-4.05,2.25
PEX5L,3,0.481,6.35,8.83
LETM1,1,0.729,8.09,6.67
LETM1,2,-0.602,-1.27,4.25
LETM1,3,-0.6,-1.25,2.65
MED10,1,-1.16,-5.23,2.37
MED10,2,0.972,9.81,6.36
MED10,3,-0.421,0.00801,2.41
AP1B1,1,0.165,4.13,5.1
AP1B1,2,0.0212,3.12,6.31
AP1B1,3,0.32,5.22,5
LINC01085,1,-0.664,-1.71,3.26
LINC01085,2,1.4,12.8,6.88
LINC01085,3,0.736,8.15,5.91
PRMT6,1,-0.585,-1.15,3.86
PRMT6,2,-0.0659,2.5,5.34
PRMT6,3,0.618,7.31,9.64
ZFAND2A,1,0.343,5.38,7.28
ZFAND2A,2,-1.06,-4.51,2.78
ZFAND2A,3,1.53,13.8,12.1
HAMP,1,-0.903,-3.38,2.84
HAMP,2,0.0745,3.49,4.14
HAMP,3,-0.0297,2.76,5.43
PGLS,1,0.469,6.27,6.04
PGLS,2,-0.0952,2.3,7.21
PGLS,3,-0.232,1.34,4.63
TBC1D30,1,1.82,15.8,10.4
TBC1D30,2,0.601,7.19,7.06
TBC1D30,3,0.487,6.39,5.53
TNS3,1,-0.374,0.338,4.91
TNS3,2,2.12,17.9,9.7
TNS3,3,0.00555,3.01,4.4
OR52N5,1,-0.205,1.52,4.29
OR52N5,2,-0.603,-1.27,2.85
OR52N5,3,-0.48,-0.412,4.46
EPCAM,1,0.518,6.61,7.78
EPCAM,2,-0.756,-2.35,3.29
EPCAM,3,0.503,6.5,5.7
FAM76B,1,0.262,4.81,5.44
FAM76B,2,-0.632,-1.48,2.46
FAM76B,3,-0.366,0.392,3.2
GRIN2C,1,-0.643,-1.56,4.72
GRIN2C,2,2.61,21.4,12
GRIN2C,3,-0.115,2.16,5.22
TIMCCP1,1,0.193,4.32,4.83
TIMCCP1,2,0.543,6.79,5.12
TIMCCP1,3,-0.242,1.27,4.12
CCNA1,1,-1.74,-9.27,1.39
CCNA1,2,-0.869,-3.14,4.16
CCNA1,3,-0.475,-0.375,4.37

Look-ups from the entries so far.
Value for LINC01085 #3 under “G2 robust z-score”: 0.736
PEX5L #2, raw share of cells in G2 (%) → 2.25
Entry for OR52N5 #3 in “G2 robust z-score”: -0.48
Under “raw share of cells in G2 (%)”, MED10 #2 has 6.36
Entry for TSLIG3C #1 in “raw share of cells in G2 (%)”: 9.45
SRP9P1 #2, raw share of cells in G2 (%): 2.48
